This note sets out measurements from publication PMC4892512.

Protein sequences, listed by entry. Tags and fused reporters are not part of them. Residues count along the entry.
UniProt P70206, residues 28-1234: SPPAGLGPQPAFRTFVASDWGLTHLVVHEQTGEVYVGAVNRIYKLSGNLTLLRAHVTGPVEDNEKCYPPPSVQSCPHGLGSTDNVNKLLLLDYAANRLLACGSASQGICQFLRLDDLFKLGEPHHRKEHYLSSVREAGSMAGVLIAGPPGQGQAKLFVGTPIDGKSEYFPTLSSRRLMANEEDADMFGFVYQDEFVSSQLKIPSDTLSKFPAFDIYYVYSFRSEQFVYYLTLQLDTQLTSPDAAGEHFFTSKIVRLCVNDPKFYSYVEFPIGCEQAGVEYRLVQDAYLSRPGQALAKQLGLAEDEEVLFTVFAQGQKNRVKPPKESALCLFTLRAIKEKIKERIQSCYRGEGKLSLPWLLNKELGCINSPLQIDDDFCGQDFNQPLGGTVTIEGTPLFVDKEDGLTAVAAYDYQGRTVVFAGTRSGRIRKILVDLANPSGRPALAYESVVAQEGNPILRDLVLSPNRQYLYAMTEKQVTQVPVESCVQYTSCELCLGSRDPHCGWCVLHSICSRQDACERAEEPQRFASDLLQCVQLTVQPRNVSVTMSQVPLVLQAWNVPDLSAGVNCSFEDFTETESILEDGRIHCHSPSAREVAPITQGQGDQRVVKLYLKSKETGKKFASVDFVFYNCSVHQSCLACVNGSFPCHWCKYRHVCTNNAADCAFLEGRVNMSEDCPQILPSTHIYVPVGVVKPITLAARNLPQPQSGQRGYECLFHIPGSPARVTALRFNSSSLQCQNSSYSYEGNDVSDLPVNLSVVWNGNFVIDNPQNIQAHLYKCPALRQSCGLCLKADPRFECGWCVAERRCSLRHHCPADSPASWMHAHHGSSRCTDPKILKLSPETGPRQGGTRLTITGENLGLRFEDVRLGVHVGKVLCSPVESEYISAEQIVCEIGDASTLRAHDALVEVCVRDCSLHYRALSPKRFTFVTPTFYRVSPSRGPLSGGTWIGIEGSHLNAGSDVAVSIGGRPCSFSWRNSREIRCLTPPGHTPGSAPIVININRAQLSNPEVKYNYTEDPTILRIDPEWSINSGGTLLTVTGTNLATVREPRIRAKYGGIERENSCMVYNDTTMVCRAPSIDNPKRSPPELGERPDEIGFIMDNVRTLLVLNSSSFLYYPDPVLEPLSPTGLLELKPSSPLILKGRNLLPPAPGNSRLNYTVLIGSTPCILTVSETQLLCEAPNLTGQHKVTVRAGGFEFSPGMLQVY

No constants are given. Whether binding was seen depends on the method and setting.

The target in the test is mouse PlxnA1_(1-10), full-length plexin-A1 ectodomain fragment comprising domains 1 through 10 (mouse) (UniProt P70206). Description: SEC + other: negative-stain electron microscopy; purified PlxnA1_(1-10) on Superdex 200; monodispersed peak fraction negatively stained with uranyl acetate, 2D class averages (30 classes, ~2,200 particles); both purified.

Take “mouse PlxnA1_(1-10), full-length plexin-A1 ectodomain fragment comprising domains 1 through 10 (from UniProt P70206 28-1234) (domain or fragment)”: the binding entry is given as “no binding”.
